PubChem BioAssay AID504744 – Drosophila RNAi Screening Center | 2011
Assay: 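Identify dsRNAs that increase or decrease phospho-dAkt after insulin treatment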 (primary screen). Cell system: Drosophila Kc167 cells. Reagents: long dsRNA against Drosophila genes, 250 ng dsRNA per well of a 384-well plate. Duration: 3 days of knock-down, then overnight serum-free starvation before stimulation. Treatment: bovine insulin at 387 nM for 10 minutes after 12 h without serum. Detection: 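Per-well phospho-dAkt level from an in-cell fluorescent antibody stain, divided by a DNA-dye signal; log2 residuals turned into z-scores that take cell number into account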. Call rule: 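Under insulin, a gene counts as a hit if the average z-score of two replicates lies above 2.5 or below -2.5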.
The deposit covers about 23,000 reagents; below is an unselected part of those with a known target gene and a result. Of all reagents, 98 (0.43%) got an active call. 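Only hit calls are given; the phospho-dAkt signals, z-scores and hit direction were not deposited.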 The numbers tell different reagents against one gene apart. Names joined by + are all predicted targets of the reagent.

lbe (GeneID 42542) gave inactive.
Against BCL7-like (GeneID 31890), the values are inactive.
Obp19a (GeneID 33037) scored inactive.
Depletion of Polr3E (GeneID 40325) came out at: inactive.
After knock-down of Wnt4 (GeneID 34007) #1 the results were inactive.
Depletion of Wnt4 (GeneID 34007) #2 resulted in: inactive.
Against ush (GeneID 33225), the entry reads inactive.
After knock-down of RpL37-1 (GeneID 32446) #1 the results were inactive.
Knock-down of RpL37-1 (GeneID 32446) #2 gave: inactive.
Depletion of Rh5 (GeneID 34615) gave: inactive.
CG33144 (GeneID 36131) #1 gave inactive.
Knock-down of CG33144 (GeneID 36131) #2 gave: inactive.
After knock-down of CG1314 (GeneID 33066), the record shows inactive.
Depletion of CG15044 (GeneID 32834) #1 came out at: inactive.
Against CG15044 (GeneID 32834) #2, the values are inactive.
Silencing of CG2865 (GeneID 31217) #1 gave: inactive.
Silencing of CG2865 (GeneID 31217) #2 resulted in: inactive.
For CG11655 (GeneID 32472), the values are inactive.
ATPsynepsilonL (GeneID 326144) showed inactive.
With knock-down of CG15404 (GeneID 33537), the screen gave inactive.
For S6k (GeneID 38654), the entry reads inactive.
Knock-down of CG7856 (GeneID 35533) came out at: inactive.
For modSP (GeneID 42032) #1, the entry reads inactive.
After knock-down of modSP (GeneID 42032) #2, the record shows inactive.
modSP (GeneID 42032) #3 showed inactive.
Knock-down of CG10209 (GeneID 36652) resulted in: inactive.
Hand (GeneID 34379) showed inactive.
CG32243 (GeneID 317935) gave inactive.
For CG15547 (GeneID 43661) the deposit lists inactive.
After knock-down of CG16868 (GeneID 37298) the results were inactive.
After knock-down of CG15696 (GeneID 42469), the record shows inactive.
Silencing of CG13743 (GeneID 35911) #1 came out at: inactive.
Silencing of CG13743 (GeneID 35911) #2 resulted in: inactive.
For CG13743 (GeneID 35911) #3, the entry reads inactive.
Silencing of CG34188 (GeneID 5740108) resulted in: inactive.
Against Phs (GeneID 39697), the values are inactive.
VGAT (GeneID 36574) scored inactive.
With knock-down of CG31391 (GeneID 41280), the record shows inactive.
CG30039 (GeneID 246411) scored inactive.
Silencing of CG17777 (GeneID 50374) resulted in: inactive.
Depletion of Trhn (GeneID 38121) resulted in: inactive.

Reformatted: entries from further up
| gene | dsRNA no. | activity call |
| --- | --- | --- |
| CG15404 (GeneID 33537) | 1 | inactive |
| S6k (GeneID 38654) | 1 | inactive |
| CG7856 (GeneID 35533) | 1 | inactive |
| modSP (GeneID 42032) | 1 | inactive |
| modSP (GeneID 42032) | 2 | inactive |
| modSP (GeneID 42032) | 3 | inactive |
| CG10209 (GeneID 36652) | 1 | inactive |
| Hand (GeneID 34379) | 1 | inactive |
| CG32243 (GeneID 317935) | 1 | inactive |
| CG15547 (GeneID 43661) | 1 | inactive |

Next results:
With knock-down of Cpr30F (GeneID 318997), the screen gave inactive.
With knock-down of Ccp84Aa (GeneID 40825) the results were inactive.
CG31323 (GeneID 318682) gave inactive.
Silencing of CG11756 (GeneID 32074) resulted in: inactive.
Cpr65Ay (GeneID 5740348) scored inactive.
Knock-down of DCTN4-p62 (GeneID 35709) gave: inactive.
After knock-down of lncRNA:CR32368 (GeneID 317997), the record shows inactive.
ATPsynO (GeneID 41845) scored inactive.
With knock-down of GlcAT-I (GeneID 251900), the record shows inactive.
With knock-down of Ude (GeneID 42953), the record shows inactive.
TotM (GeneID 33764) showed inactive.
After knock-down of Fbxo42 (GeneID 37532) the results were inactive.
Depletion of RPA2 (GeneID 35364) came out at: inactive.
CG17493 (GeneID 3355126) showed inactive.
pygo (GeneID 43718) scored inactive.
After knock-down of Ets96B (GeneID 42952), the screen gave inactive.
For CG7564 (GeneID 39956), the entry reads inactive.
With knock-down of ph-p (GeneID 31181), the screen gave inactive.
CHES-1-like (GeneID 31678) showed inactive.
CG9132 (GeneID 2768881) scored inactive.
With knock-down of His2Av (GeneID 43229), the screen gave inactive.
Against ATPsynD (GeneID 42291), the entry reads inactive.
With knock-down of Or33b (GeneID 34602), the screen gave inactive.
Against CG15439 (GeneID 33651), the values are inactive.
Depletion of l(3)73Ah + CG32163 gave: inactive.
Against hdm (GeneID 31705), the entry reads inactive.
Rfx (GeneID 41266) gave inactive.
Against nec (GeneID 45908) the deposit lists inactive.
For CG33062 (GeneID 318840) the deposit lists inactive.
CG9752 (GeneID 37431) gave inactive.
Silencing of ProRS-m (GeneID 38331) gave: inactive.
For Vps45 (GeneID 41153), the entry reads inactive.
